Earlier results in PMC12769565, “Design, synthesis and biological activity of glycoconjugated ADAMTS5 exosite inhibitors: applications in osteoarthritis and ovarian cancer models” (Scientific Reports, 2025).

Tested on: HEK293
Design: method as in ChEMBL
Settings: ref ChEMBL, read-out: EC50 (Standard Value); cited from earlier work

SMILES: Clc1ccccc1C(c1ccccc1)(c1ccccc1)n1ccnc1 [CHEMBL104]
- EC50: 3000 nM
